Experimental data: the supplement of paper PMC7125110
± gives the standard error. Many of these values have a large error.

B1: glmS ribozyme (parent)
chain: AUAAAAGCGCCAGAACUACAGAAAUGUAGUUGACGAGGAGGAGGUUUAUCGAAUUUUCGGCGGAUGCCUCCAAA

Variants of: B1
Assay: self-cleavage kobs at 640 uM GlcN6P; higher = faster cleavage; RNA array
Conditions: with glucosamine-6-phosphate
Procedure, shortened: (§1)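 Sequenced MiSeq chips were the platform: E. coli RNA polymerase transcribed barcoded ribozyme variants on them in situ, and a hybridised Cy3 probe tracked these at 37 °C. After glucosamine-6-phosphate (40 μM to 10 mM) in HEPES/KCl/Mg(OAc)2 buffer was flowed in, tiles were imaged over ~14 h. Signals normalised to baseline and to non-cleaving reference variants were reduced to per-tile medians and fit to one- or two-exponential decays to obtain kobs. kcat and KM were derived through weighted Michaelis–Menten fits across concentrations.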

| Variant | self-cleavage kobs at 640 uM GlcN6P [s⁻¹] |
| --- | --- |
| C34U C50G C68A | 2.21e-05 ± 1.6e-05 |
| G35C U49G C50G C70G | 5.15e-05 ± 3.7e-05 |
| A36C C67G | 0.000321 ± 0.00024 |
| A36C U54G C70A | 9.47e-05 ± 5.8e-05 |
| A36G A64G U69G | 3e-05 ± 2.6e-05 |
| A36G G63U C70A | 3.44e-05 ± 2.9e-05 |
| A36U A64G C68G | 4.2e-05 ± 3.1e-05 |
| A36U C58G C70A | 4.83e-05 ± 2.4e-05 |
| A36U G66U C71G | 2.98e-05 ± 2.9e-05 |
| A36U U69C | 2.92e-05 ± 2.8e-05 |
| G37A A39U U65C | 1.85e-05 ± 1.7e-05 |
| G37A U69G | 2.53e-05 ± 1.9e-05 |
| G37C A53U C70U | 2.65e-05 ± 2.7e-05 |
| G37C A64G | 3.1e-05 ± 1.6e-05 |
| G37C C50U G51C C61U U69G | 2.5e-05 ± 2.4e-05 |
| G37C C50U U69G | 5.09e-05 ± 2.6e-05 |
| G37C U46G U69G | 0.000588 ± 0.00033 |
| G37C U56C C58U C67U | 2.94e-05 ± 2.6e-05 |
| G37U C50A G59A C71G | 4.36e-05 ± 2.2e-05 |

| Variant | self-cleavage kobs at 640 uM GlcN6P [s⁻¹] |
| --- | --- |
| G37U C68U C71G | 4.41e-05 ± 2.5e-05 |
| G37U G38C U47G C50A C70U | 3.9e-05 ± 2.3e-05 |
| G37U U46G U69A C71U | 3.07e-05 ± 2.7e-05 |
| G37U U69A | 2.14e-05 ± 1.7e-05 |
| G38C C70A | 1.73e-05 ± 1.6e-05 |
| G38U C61A C67U | 0.000133 ± 8.9e-05 |
| G38U C67G | 0.000201 ± 0.00016 |
| G38U G63A C67G | 3.5e-05 ± 2.6e-05 |
| G38U U47G C71U | 4.22e-05 ± 3.3e-05 |
| A39C A42G C71A | 4.7e-05 ± 2.8e-05 |
| A39G C68A | 4.03e-05 ± 2.7e-05 |
| A39U A48U C67G | 3.07e-05 ± 2.9e-05 |
| A39U G41U C71A | 5.18e-05 ± 2.6e-05 |
| G40A A42U | 2.32e-05 ± 1.6e-05 |
| G40U G41A C67A C70U | 2.14e-05 ± 1.3e-05 |
| G40U U55C | 1.96e-05 ± 1.1e-05 |
| G41C U55G | 2.34e-05 ± 1.9e-05 |
| G41C U65A | 1.69e-05 ± 1.2e-05 |
| G41U A52U | 2.41e-05 ± 1.7e-05 |

Pulled one by one from the entries so far, two records:

| Variant | self-cleavage kobs at 640 uM GlcN6P [s⁻¹] |
| --- | --- |
| G38U C61A C67U | 0.000133 ± 8.9e-05 |
| G37C U46G U69G | 0.000588 ± 0.00033 |

Variants of: B1
Assay: self-cleavage kobs at 160 uM GlcN6P; higher = faster cleavage; RNA array
Conditions: with glucosamine-6-phosphate
Procedure, shortened: as §1

| Variant | self-cleavage kobs at 160 uM GlcN6P [s⁻¹] |
| --- | --- |
| A36G G63U C70A | 2.13e-05 ± 2.1e-05 |
| G37U U69A | 2.41e-05 ± 2.2e-05 |

Variants of: B1
Assay: self-cleavage kobs at 2500 uM GlcN6P; higher = faster cleavage; RNA array
Conditions: with glucosamine-6-phosphate
Procedure, shortened: as §1

| Variant | self-cleavage kobs at 2500 uM GlcN6P [s⁻¹] |
| --- | --- |
| G37A U69G | 2.09e-05 ± 1.3e-05 |
| G37U U69A | 3.08e-05 ± 2.7e-05 |
| G38C C70A | 1.77e-05 ± 1.7e-05 |
| G38U U47G C71U | 3.84e-05 ± 2.7e-05 |
| A39C A42G C71A | 3.01e-05 ± 2.7e-05 |

Variants of: B1
Assay: self-cleavage kobs at 10000 uM GlcN6P; higher = faster cleavage; RNA array
Conditions: with glucosamine-6-phosphate
Procedure, shortened: as §1

| Variant | self-cleavage kobs at 10000 uM GlcN6P [s⁻¹] |
| --- | --- |
| G38U C67G | 1.54e-05 ± 9.3e-06 |
